Test results from the supplement of paper PMC5949888.
Most values lie at the floor of the assay. Slopes are relative: functional sequences can read slightly below zero.

test system: Saccharomyces cerevisiae PS128 hsf1 delta, HSF1(1-493) fusion; test: growth estimate (transactivation domain function in HSF1 fusion, heat-shock survival) (a.u. (slope of normalised read count over time)); higher = stronger growth at 37°C, i.e. more transactivation activity; conditions: library: random library
Procedure: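 Random 60-nt DNA library encoding peptides of up to 20 aa, fused to the C-terminus of yeast HSF1 residues 1-493 (C-terminal TAD deleted) and expressed from the native HSF1 promoter on a CEN plasmid in hsf1-deleted S. cerevisiae PS128. Cells were selected at 37°C on -trp 5-FOA plates for 0, 2, 4, 6 and 8 days and amplicons were sequenced. Growth estimate is the slope of a robust linear fit of total-sum-normalised read counts (normalised to the first time point) over time, using at least 2 replicates. Sequences are classed functional (TAD activity) above a threshold of -0.13, set from stop-codon control sequences.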

Substance	growth estimate
ENWQGRRSGRAGSMQQCLCG	< -0.25
ENYRGCNVQNTRPGNATSPV	< -0.25
ENYSSYYQPERTKPCNMTWV	< -0.25
EPATLFRGSRPSDRPCSPQP	< -0.25
EPDSAAAFDYGTSRDGLVNV	< -0.25
EPIRHAGSYIAAPTGVMGGP	< -0.25
EPKLLIDTVVSRMKSTKPRL	< -0.25
EPMTCG	< -0.25
EPMTDKHVGLLT	< -0.25
EPRD	< -0.25
EPSPVRAICFWYGPLELGHL	< -0.25
EPT	< -0.25
EPW	< -0.25
EPWFLPRSLAIRLVLAE	< -0.25
EPWLSHPTIPCTWRKDWSI	2.38
EPWSAGGLFAVKRIDTCLAL	< -0.25
EPYVLRIQFLLARIHSCTGF	< -0.25
EQCKLCPKSRSLIL	< -0.25
EQDLERVRCNKRPPQRLGVM	< -0.25
EQFKSLGDAEQEGNPKQFRF	-0.0573
EQGFAASMDPCRSYRDIAFH	< -0.25

Substance	growth estimate
EQGLENILIAAKQ	-0.231
EQIGRSGM	-0.0054
EQNSTVMG	< -0.25
EQPTDIG	< -0.25
EQRD	< -0.25
EQRIDGLTHTIRTSIL	< -0.25
ERAGLITRRVVHRA	< -0.25
ERAGSEGRQINRGRECLSGT	< -0.25
ERASTAGDNLHI	< -0.25
ERAWAQIGHPC	< -0.25
ERCGSRIINNVMS	< -0.25
ERCRQRPPAPGHIVRGDSYV	< -0.25
ERD	< -0.25
ERDSVSVYIAFGTHEKSIKY	< -0.25
ERESTYVG	< -0.25
ERFFKRTGMWSHGHWNGSGV	< -0.25
ERFRHGL	< -0.25
ERGDFER	< -0.25
ERGI	< -0.25
ERGRSGCTHSDRTSRCPMLS	< -0.25
ERGSWGGLQTTDFPGHDVLR	< -0.25

Substance	growth estimate
ERICKKSASIASPR	< -0.25
ERLGCCGS	< -0.25
ERLRRKSNLLPGGKPHCLMI	< -0.25
ERMA	< -0.25
ERMRLHYDTRV	< -0.25
ERNVGGPYDNH	< -0.25
ERNVIVLLRVPPGGY	< -0.25
ERPAPRWWGVHGSKGVVYVE	< -0.25
ERPSTQ	< -0.25
ERPTAQTCRHVGVAYPQIPW	< -0.25
ERPVLEKVGGKFWSD	< -0.25
ERQIGRGYNTRCVWRYYINC	< -0.25
ERQSRRLTLWDT	< -0.25
ERRLVCGSC	< -0.25
ERS	< -0.25
ERSCYLASARPYYLVRTSVT	< -0.25
ERSMGRPRENRQYENINRQH	-0.0501
ERSYLPLTTSEWVVFESRNS	< -0.25
ERV	< -0.25
ERVCNPSLDREPMVERLMLF	< -0.25
ERVGIMPRETASTRRSRIVC	< -0.25

Fetched one by one from the entries so far, four records:
Substance	growth estimate
EPT	< -0.25
ERPAPRWWGVHGSKGVVYVE	< -0.25
ERSCYLASARPYYLVRTSVT	< -0.25
ERS	< -0.25

The list goes on.

Substance	growth estimate
ERWNQLLLSCCQL	< -0.25
ERYQRSAPPRHVQTGVPGVG	< -0.25
ESANSGQCNGFPIHPLDRCP	< -0.25
ESDVVAERQDEFREGLWAGV	< -0.25
ESENMPLASFWLWYFPRVPY	< -0.25
ESEPTDLYGRFLPEVLYG	-0.179
ESESARHEHQANTRIHVIKD	< -0.25
ESFVNDLMSGLRFENLSSCA	< -0.25
ESGPSSEWCLKQT	< -0.25
ESGSPRRGFLHHSLVFYCGP	< -0.25
ESGWAR	< -0.25
ESGWRA	< -0.25
ESISRYIKRLRGDQT	-0.246
ESLDNGDGIPRGLSREIG	< -0.25
ESLEGRKRSVRSEVITTLGR	< -0.25
ESLL	< -0.25
ESMPQISTSNGKSIG	< -0.25
ESPGK	< -0.25
